In publication PMC12670160, “A drug-repurposing screen of FDA- and EMA-approved drugs identifies two NF-κB inhibitors active against eumycetoma” (Journal of Antimicrobial Chemotherapy, 2025):
Counter-ions that a name gives are not always drawn. Hit rate of the full screen: of about 5,300 compounds, about 130 (2.5%) showed an effect of 50% or more. The list shows a part of the results.

tested on: M. mycetomatis strain mm55; conditions: primary screen, metabolic activity vs growth control; 96 h, 2 µM; inhibitor

Compound | % viability [%]
N=C(N)NC(=O)c1nc(Cl)c(N)nc1N [ONC0000339, amiloride hydrochloride] | 57.59
O=C(CO)[C@@H](O)[C@@H](O)[C@H](O)CO [ONC0004055, dtagatose] | 131.4
CC(Cc1ccccc1)(NC(=O)CN)c1ccccc1 (centres unmarked) [ONC0002490, remacemide] | 68.5
COc1ccc(Cc2cnc(N)nc2N)cc1OC [ONC0004173, diaveridine] | 54.75
CN(C)C(=O)COC(=O)Cc1ccc(OC(=O)c2ccc(NC(=N)N)cc2)cc1 [ONC0004786, camostat mesilate foy305] | 89.86
CCCCOc1c(C(=O)c2c(F)cc(C)cc2F)c[nH]c2nncc1-2 [ONC0005009, bms265246] | 77.83
CCC(=O)N1CCOc2c(cc(-c3ccc(OC)c(OC)c3)cc2OC[C@H]2CCCN(C)C2)C1 [ONC0000119, icbp112] | 80.5
CC(C)(C)C(=O)OCOC(=O)[C@@H]1N2C(=O)[C@@H](NC(=O)[C@H](N)c3ccccc3)[C@H]2SC1(C)C [ONC0002359, pivampicillin] | 80.23
COc1cccc(OC)c1OCCNCC1COc2ccccc2O1 (centres unmarked) [ONC0004267, wb4101] | 70.08
O=C1NCN(c2ccccc2)C12CCN(CCCC(c1ccc(F)cc1)c1ccc(F)cc1)CC2 [ONC0003520, fluspirilene] | 48.06
O=C(Nc1ccc(-c2ccnc(Nc3ccc(N4CCOCC4)cc3)n2)cc1)[C@@H]1CCCN1 [ONC0005105, xl019] | 82.25
Cc1ccc(C(C)C)c(OC=C2NCCN2)c1 [ONC0005561, tymazoline] | 90.75
O=c1cc(N2CCN(c3cccc(C(F)(F)F)c3)CC2)[nH]c(=O)n1C1CCCCC1 [ONC0000243, ml179] | 73.38
CC[S+]([O-])c1nc(-c2cccc(OCc3ccccc3)c2)cc(C(F)(F)F)n1 (centres unmarked) [ONC0000089, betp] | 100.3
CCCCC1=NC2(CCCC2)C(=O)N1Cc1ccc(-c2ccccc2-c2nnn[nH]2)cc1 [ONC0004275, irbesartan] | 80.52
NC(=O)Cc1cccc(C(=O)c2ccccc2)c1N [ONC0004683, nepafenac] | 115.4
C[C@H]1COC2=C1C(=O)C(=O)c1c2ccc2c1CCCC2(C)C [ONC0001081, cryptotanshinone] | 49.66
CN(C)CC[C@H](CSc1ccccc1)Nc1ccc(S(=O)(=O)NC(=O)c2ccc(N3CCN(Cc4ccccc4-c4ccc(Cl)cc4)CC3)cc2)cc1[N+](=O)[O-] [ONC0004360, abt737] | 77.62
CN(C)CCC(O)(c1ccccc1)c1ccccc1Cl (centres unmarked) [ONC0002125, clofedanol] | 64.84
CSc1ccccc1OCC(O)CNC(C)C (centres unmarked) [ONC0003198, tiprenolol] | 96.68
CCOc1ccccc1OCC1CNCCO1 (centres unmarked) [ONC0002324, viloxazine] | 79.07

Molecules above that have a CF3 group, in the order listed:
Compound | % viability [%]
O=c1cc(N2CCN(c3cccc(C(F)(F)F)c3)CC2)[nH]c(=O)n1C1CCCCC1 [ONC0000243, ml179] | 73.38
CC[S+]([O-])c1nc(-c2cccc(OCc3ccccc3)c2)cc(C(F)(F)F)n1 (centres unmarked) [ONC0000089, betp] | 100.3

(next part)

Compound | % viability [%]
CC[C@H]1OC(=O)[C@H](C)[C@@H](O[C@H]2C[C@@](C)(OC)[C@@H](O)[C@H](C)O2)[C@H](C)[C@@H](O[C@@H]2O[C@H](C)C[C@H](N(C)C)[C@H]2O)[C@](C)(OC)C[C@@H](C)C(=O)[C@H](C)[C@@H](O)[C@]1(C)O [ONC0003947, clarithromycin] | 65.77
COCCN1CCC(C(=O)NO)(S(=O)(=O)c2ccc(Oc3ccc(OC(F)(F)F)cc3)cc2)CC1 [ONC0000013, sd2590] | 105.6
N[C@@H]1CCCCN(c2c(F)cc3c(=O)c(C(=O)O)cn(C4CC4)c3c2Cl)C1 [ONC0004995, besifloxacin hcl besivance] | 82.01
O=[N+]([O-])c1ccc2c(c1)S(=O)(=O)C=C2 [ONC0004631, stattic] | 95.29
C/C(O)=C(\C#N)C(=O)Nc1cc(Br)ccc1Br [ONC0000434, lfma13] | 65.14
CSC[C@H](N)C(=O)O [ONC0003388, smethylcysteine] | 83.56
CCN(Cc1ccc(Cl)nc1)/C(=C/[N+](=O)[O-])NC [ONC0004553, nitenpyram] | 78.6
O=C(Nc1cc(C(F)(F)F)ccc1O)Nc1cc(C(F)(F)F)ccc1O [ONC0002555, ns1643] | 109.7
Cc1ccccc1-n1c(Cn2ncc3c(N)ncnc32)nc2cccc(C)c2c1=O [ONC0005229, pik293] | 119
COc1[nH]c2ccc(F)cc2c1C(=O)OCC1CCN(CCNS(C)(=O)=O)CC1 [ONC0001723, gr125487 sulfamate] | 72.72
CCCCOC(=O)c1ccc(N)cc1 [ONC0000690, butamben] | 111
O=C(Nc1ccc(C(=O)O)c(O)c1)c1ccccc1 [ONC0003998, benzoylpas] | 92.12
Cc1cc(OCC(=O)O)cc(C)c1Cc1ccc(O)c(C(C)C)c1 [ONC0002599, sobetirome] | 88.03
CCN(Cc1ccccc1)C(=O)Cn1c(=O)n(C)c2cnc(-c3ccccc3)nc21 [ONC0005422, emapunil] | 111.5
CN1CCN(C(=O)C2C(C(=O)O)[C@@H]3CC[C@H]2O3)CC1 (some centres unmarked) [ONC0001871, lb100] | 109.3
Nc1nc(=O)n([C@H]2C[C@H](O)[C@@H](CO)O2)cc1F [ONC0004119, 5fluoro2deoxycytidine] | 7.324
CNC(=O)c1ccc(-c2cnc3ncc(Cc4ccc5ncccc5c4)n3n2)cc1F [ONC0004567, capmatinib incb28060] | 64.35
CC(C)c1ccc(C(=O)c2cccs2)c(SCCCCCCCCN(C)C)n1 [ONC0001866, y29794 oxalate] | 74.26
Cc1ccc(S(=O)(=O)n2c(N)nc3ccccc32)cc1 [ONC0004495, ml130] | 59.06
COc1cc2c(cc1O)CC[C@@H]1[C@@H]2CC[C@]2(C)[C@@H](O)CC[C@@H]12 [ONC0000179, 2methoxyestradiol] | 105.8
